Amino acid sequences for entries named in this document (tags omitted). A change or cut given only in a name is not applied to a line headed by its entry.
UniProt Q16651: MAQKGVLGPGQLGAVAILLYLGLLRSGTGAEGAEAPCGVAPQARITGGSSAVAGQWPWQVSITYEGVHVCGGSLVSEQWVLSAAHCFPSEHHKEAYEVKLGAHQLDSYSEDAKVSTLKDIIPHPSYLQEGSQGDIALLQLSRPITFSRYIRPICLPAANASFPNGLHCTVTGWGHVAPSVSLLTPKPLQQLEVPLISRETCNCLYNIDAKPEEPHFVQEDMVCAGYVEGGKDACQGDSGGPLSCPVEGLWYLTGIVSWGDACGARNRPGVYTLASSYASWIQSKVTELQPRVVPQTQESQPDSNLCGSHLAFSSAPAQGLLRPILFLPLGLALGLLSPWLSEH

According to article PMC5884512:

Molecular target: S238A human prostasin converted into the double-chain form by matriptase (human) (UniProt Q16651)
Assay: SDS-stable complex formation detected by Western blot; 100 ng prostasin zymogen or matriptase-activated prostasin (10 nM matriptase serine protease domain, 20 min, 37°C) in 50 mM Tris/HCl pH 8.0, 100 mM NaCl incubated with 200 ng PN-1, HAI-1 or HAI-2 for 30 min at room temperature; reduced/non-boiled samples; anti-prostasin Western blot

B1: recombinant human serpin E2/PN-1 (protease nexin-1) (protein, UniProt P07093 20-398)
chain: SHFNPLSLEELGSNTGIQVFNQIVKSRPHDNIVISPHGIASVLGMLQLGADGRTKKQLAMVMRYGVNGVGKILKKINKAIVSKKNKDIVTVANAVFVKNASEIEVPFVTRNKDVFQCEVRNVNFEDPASACDSINAWVKNETRDMIDNLLSPDLIDGVLTRLVLVNAVYFKGLWKSRFQPENTKKRTFVAADGKSYQVPMLAQLSVFRCGSTSAPNDLWYNFIELPYHGESISMLIALPTESSTPLSAIIPHISTKTIDSWMSIMVPKRVQVILPKFTAVAQTDLKEPLKVLGITDMFDSSKANFAKITTGSENLHVSHILQKAKIEVSEDGTKASAATTAILIARSSPPWFIVDRPFLFFIRHNPTGAVLFMGQINKP
B1 was tested, and the binding was “no binding (tested: 200 ng PN-1 with 100 ng prostasin)”.

No constants are given. Whether binding was seen depends on the method and setting.
